Here are results for one molecule from ChEMBL document CHEMBL2086249, “Use of small-molecule crystal structures to address solubility in a novel series of G protein coupled receptor 119 agonists: optimization of a lead and in vivo evaluation” (J Med Chem, 2012).

The series can be described thus: physchem. Particulars: octanol/water, pH 7.4.

Broadly, the logD is lipophilicity at a set pH, counting ionised and neutral species. Molecule `CC(C)(C)OC(=O)N1CCN(c2ncc(OCc3ccc(S(C)(=O)=O)cc3)cn2)C(C)(C)C1` showed a logD greater than 3.6.
